Reference: patent US6083920A, “Compositions for modulating intracellular inositol trisphosphate concentration” (priority 1996, dated 2000)

Tested on: cultured neurons
Assay: Lysosphingolipid content of cultured neurons by NBDZF fluorescence tagging
Assay type: cell-based, chick
Settings: for lysosphingolipid content of agonist-stimulated neurons: 100 μM ibotenate for 1 hour, n=6; for lysosphingolipid content of resting, unstimulated neurons: n=9
Text: Agonist-binding to metabotropic receptors influences the levels of lysosphingolipid in neuronal membranes. However, there is no convenient methodology available for the measurement of lysosphingolipid content in cultured neurons. As a result, a sensitive method of fluorometric tracing has been devised and is described herein. The measurement of lysosphingolipid content in cultured neurons is based on the stable fluorescence-tagging procedure using 4-fluoro, 7-nitrobenzofuran (NBDZF) described by Nozowa et al J. Neurochem. 59:607-609, 1992). The procedure was applied to: resting neurons; neurons exposed to 100 μM metabotropic receptor agonist for 1 hour; resting neurons exogenously enriched in lysosphingolipids; and neurons exogenously enriched in lysosphingolipids and exposed to metabotropic receptor agonist for 1 hour. The neurons were scraped in batches of 107 (1 Petri dish, approximately 8 cm in diameter, is equivalent to 2 mg membrane protein) and subjected to anaylsis.
Total lipids were removed from the neuron samples by repeated extraction with chloroforn:methanol (2:1, vol:vol). The lysosphingolipids were separated from total neuronal lipid in 90±5% recovery yield (n=10) by the stepped chromatographic procedure of Van Veldhoven et al. (Anal. Biochem. 183:177-189, 1989). The recovered lysosphingolipids were stably tagged with NBDZF by the rapid procedure of Nozowa et al. (supra). The fluorescence tagged neuronal lysosphingolipids were separated in parallel with reference standards NBDZF-Sph, NBDZF-Psy, and NBDZF-Lsm on high performance silica gel thin layer chromatography plates with acetonitrile:H2 O (10:0.5, vol:vol). The highly fluorescent, well separated bands were scraped from the plate. The fluorescence tagged lysosphingolipids are eluted from the scraped silica gel with methanol:1 N HCl (1:0.02, vol:vol). The fluorescence tagged lysosphingolipid eluates were quantitated against reference standards by fluorescence measurement in a Perkin-Elmer LS-5 Fluorescence Spectrometer.
Sphingolipid content of neurons exposed to sphingosine, lysocerebroside, and lysosphingomyelin was examined as follows. A Petri dish containing approximately 107 neurons was incubated with 5 μCi [^3 H]myo-Ins in 3 ml DMEM overnight to prelabel the phosphoinositide InsP3 may contain. The neurons were washed with PBS and 3 ml of PBS containing 4.5 g/l glucose was added. Preparations of sphingosine, lysocerebroside, lysosphingomyelin (Sigma Chemical Co., St. Louis, Mo.) and combinations of each were prepared as the hydrochloride salt dissolved in PBS. The lysosphingolipids were added to the Petri dishes to produce a concentration ranging from 0-150 μM. […] Trypsinization removes non-specifically bound lysosphingolipids that may adhere to extracellular plasma membrane protein domain s. Non-specific adherence between cationic micelles of lysosphingolipids and the neuronal glycocatyx avoided by performing the experiments with lysosphingolipid concentrations below the critical micelle concentration. Neurons were analyzed for lysosphingolipid content as described above.

| SMILES | lysosphingolipid content of agonist-stimulated neurons [pmoles per mg protein] | lysosphingolipid content of resting, unstimulated neurons [pmoles per mg protein] |
| --- | --- | --- |
| CCCCCCCCCCCCC/C=C/[C@@H](O)[C@@H](N)COP(=O)([O-])OCC[N+](C)(C)C [lysosphingomyelin, sphingosyl phosphoryicholine] | 52±2 | 5±0.2 |
| CCCCCCCCCCCCC/C=C/[C@@H](O)[C@@H](N)CO[C@@H]1O[C@H](CO)[C@H](O)[C@H](O)[C@H]1O [psychosine, lysocerebroside] | 80±5 | 50±10 |
| CCCCCCCCCCCCC/C=C/[C@@H](O)[C@@H](N)CO [sphingosine] | 85±3 | 113±13 |
